In PubChem BioAssay AID248 (DTP/NCI, 2004):
The list is a part of this screen's results and no random one: it gathers tests that were run many times, whatever their T/C, doses with no T/C, and many T/C values between a quarter and a half above the control. Further doses and runs are listed elsewhere. T/C is the treated group as % of the vehicle group. Some entries give survivors of the animals treated and no T/C: the source holds a T/C of zero for them, seemingly a mark for toxic or unscored doses. Some survivor counts are full or nearly so, which does not show that the dose was tolerated: survival well below the control is almost never listed, so the zero probably covers shortened survival too. Survivors were counted at the toxicity check, usually on the fifth day, unless a day is given; later deaths do not show. Schedule codes are those of the source, read here as Q, the interval in days (D) or hours (H), X, the number of doses. Where survival is the endpoint, this PubChem deposit counts one and a half times the control or more as active, and values a quarter to a half above the control carry no call in these data; other NCI protocols may use other cut-offs. Brackets with × count equal records among those shown. Some doses were run more than once; the values are given in rising order. Some T/C values carry the count of animals alive at the toxicity check (mostly the fifth day); without a count, all were alive then.

Tested on: L1210 leukemia ip in BDF1 mice, survival T/C
Assay: NCI In Vivo Anticancer Drug Screen. Data for tumor model L1210 Leukemia (intraperitoneal) in B6D2F1 (BDF1) mice
Settings: T/C endpoint: mean survival time, higher T/C = longer survival
[1] = dose: 6.25 mg/kg/injection, schedule: Q01DX009 (ip), vehicle: saline
[2] = dose: 50.0 mg/kg/injection, schedule: Q04DX003 (ip), vehicle: saline
[3] = dose: 100.0 mg/kg/injection, schedule: Q04DX003 (ip), vehicle: saline

For `O/N=c1/ccn(O)c2ccccc12`, the T/C (dose: 0.25 mg/kg/injection, schedule: Q03HX024 (ip), vehicle: other) was 135 % of control, the T/C (dose: 0.5 mg/kg/injection, schedule: Q03HX016 (ip), vehicle: other) was 139 % of control and the T/C (dose: 0.5 mg/kg/injection, schedule: Q03HX024 (ip), vehicle: other) was 142 % of control. The T/C (dose: 0.78 mg/kg/injection, schedule: Q01DX009 (ip), vehicle: saline) was 127 and 133 % of control, the T/C (dose: 1.0 mg/kg/injection, schedule: Q01DX005 (ip), vehicle: other) was 136 % of control [7 of 8 alive] and the T/C (dose: 1.0 mg/kg/injection, schedule: Q01DX009 (ip), vehicle: other) was 132 % of control. The T/C (dose: 1.0 mg/kg/injection, schedule: Q03HX008 (ip), vehicle: other) was 139 % of control, the T/C (dose: 1.0 mg/kg/injection, schedule: Q03HX016 (ip), vehicle: other) was 149 % of control and the T/C (dose: 1.0 mg/kg/injection, schedule: Q03HX024 (ip), vehicle: other) was 139 % of control. For the same compound, the T/C (dose: 1.17 mg/kg/injection, schedule: Q01DX009 (ip), vehicle: saline) was 129 % of control, the T/C (dose: 1.56 mg/kg/injection, schedule: Q01DX009 (ip), vehicle: saline) was 130 % of control and the T/C (dose: 2.0 mg/kg/injection, schedule: Q01DX005 (ip), vehicle: other) was 143 % of control. For the same compound, the T/C (dose: 2.0 mg/kg/injection, schedule: Q01DX009 (ip), vehicle: other) was 149 % of control, the T/C (dose: 2.0 mg/kg/injection, schedule: Q03HX016 (ip), vehicle: other) was 142 % of control and the T/C (dose: 2.0 mg/kg/injection, schedule: Q03HX024 (ip), vehicle: other) was 139 % of control. For the same compound, the T/C (dose: 2.0 mg/kg/injection, schedule: Q04DX003 (ip), vehicle: other) was 137 % of control, the T/C (dose: 2.6 mg/kg/injection, schedule: Q01DX015 (ip), vehicle: saline) was 134 % of control and the T/C (dose: 3.12 mg/kg/injection, schedule: Q01DX009 (ip), vehicle: saline) was 132 % of control. The T/C (dose: 4.0 mg/kg/injection, schedule: Q01DX001 (ip), vehicle: other) was 144 % of control, the T/C (dose: 4.0 mg/kg/injection, schedule: Q01DX005 (ip), vehicle: other) was 127 % of control and the T/C (dose: 4.0 mg/kg/injection, schedule: Q01DX015 (ip), vehicle: saline) was 133 % of control (2×). The survivor count (dose: 4.0 mg/kg/injection, schedule: Q03HX008 (ip), vehicle: other) was 4 of 8, the survivor count (dose: 4.0 mg/kg/injection, schedule: Q03HX024 (ip), vehicle: other) was 5 of 6 and the T/C (dose: 4.0 mg/kg/injection, schedule: Q04DX003 (ip), vehicle: other) was 147 % of control. The T/C (dose: 4.0 mg/kg/injection, schedule: Q08DX002 (ip), vehicle: other) was 142 % of control, the T/C (dose: 5.0 mg/kg/injection, schedule: Q01DX001 (ip), vehicle: other) was 132 % of control and the survivor count [1] was 3 of 6. The survivor count (dose: 8.0 mg/kg/injection, schedule: Q01DX009 (ip), vehicle: other) was 8 of 8, the survivor count (dose: 8.0 mg/kg/injection, schedule: Q01DX015 (ip), vehicle: saline) was 5 of 6 and the survivor count (dose: 8.0 mg/kg/injection, schedule: Q03HX008 (ip), vehicle: other) was 4 of 8. The T/C (dose: 10.0 mg/kg/injection, schedule: Q01DX001 (ip), vehicle: other) was 135 and 137 % of control, the survivor count (dose: 12.5 mg/kg/injection, schedule: Q01DX009 (ip), vehicle: saline) was 1 of 6 and the T/C (dose: 15.0 mg/kg/injection, schedule: Q01DX001 (ip), vehicle: other) was 127 % of control. For the same compound, the survivor count (dose: 16.0 mg/kg/injection, schedule: Q01DX001 (ip), vehicle: other) was 2 of 8, the survivor count (dose: 16.0 mg/kg/injection, schedule: Q01DX005 (ip), vehicle: other) was 5 of 8 and the survivor count (dose: 16.0 mg/kg/injection, schedule: Q01DX015 (ip), vehicle: saline) was 5 of 6. The survivor count (dose: 16.0 mg/kg/injection, schedule: Q04DX003 (ip), vehicle: other) was 2 of 8, the survivor count (dose: 16.0 mg/kg/injection, schedule: Q08DX002 (ip), vehicle: other) was 8 of 8 and the T/C (dose: 20.0 mg/kg/injection, schedule: Q01DX001 (ip), vehicle: other) was 134 % of control. For the same compound, the survivor count (dose: 25.0 mg/kg/injection, schedule: Q01DX009 (ip), vehicle: saline) was 3 of 6, the survivor count (dose: 32.0 mg/kg/injection, schedule: Q01DX001 (ip), vehicle: other) was 2 of 8 and the survivor count (dose: 32.0 mg/kg/injection, schedule: Q04DX003 (ip), vehicle: other) was 6 of 8. The survivor count (dose: 32.0 mg/kg/injection, schedule: Q08DX002 (ip), vehicle: other) was 7 of 8, the survivor count [2] was 1 of 6 and the survivor count (dose: 64.0 mg/kg/injection, schedule: Q01DX001 (ip), vehicle: other) was 2 of 8. The T/C (dose: 64.0 mg/kg/injection, schedule: Q01DX001 (sc), vehicle: other) was 125 % of control, the survivor count (dose: 100.0 mg/kg/injection, schedule: Q01DX001 (ip), vehicle: other) was 3 of 6 and the survivor count [3] was 1 of 6. The survivor count (dose: 200.0 mg/kg/injection, schedule: Q01DX001 (ip), vehicle: other) was 0 of 6 and the survivor count (dose: 400.0 mg/kg/injection, schedule: Q01DX001 (ip), vehicle: other) was 0 of 6.
For `CN(C)c1ncnc2c1nnn2C1OC(CO)C(O)C1O` (stereo not given), the T/C (dose: 600.0 mg/kg/injection, schedule: Q01DX001 (ip), vehicle: saline) was 132 % of control.
`O=C(COc1ccc(Cl)cc1Cl)Nc1ccc(F)cc1` was tested, and the survivor count (dose: 200.0 mg/kg/injection, schedule: Q01DX009 (ip), vehicle: saline with Tween-80) was 3 of 6 and the survivor count (dose: 400.0 mg/kg/injection, schedule: Q01DX009 (ip), vehicle: saline with Tween-80) was 0 of 6.
With `CC(C)(C)c1cc(C[P+](c2ccccc2)(c2ccccc2)c2ccccc2)cc(C(C)(C)C)c1O` the survivor count [1] was 3 of 6, the survivor count (dose: 12.5 mg/kg/injection, schedule: Q04DX003 (ip), vehicle: saline) was 3 of 6 and the survivor count (dose: 25.0 mg/kg/injection, schedule: Q04DX003 (ip), vehicle: saline) was 1 of 6. The survivor count [2] was 0 of 6, the survivor count [3] was 0 of 6 and the survivor count (dose: 200.0 mg/kg/injection, schedule: Q04DX003 (ip), vehicle: saline) was 1 of 6. For the same compound, the survivor count (dose: 400.0 mg/kg/injection, schedule: Q04DX003 (ip), vehicle: saline) was 1 of 6.
